The results in this text go back to the supplement of paper PMC11348887.

Counter-ions that a name gives are not always drawn. Some of the results follow. Most entries show no effect beyond the scatter of the controls.

Settings in all cases: 5 µM; treatment: days 7-14 after plating, readout day 21
Experiment [1] relates to hPSC-derived cortical neurons (WA09). Kind of experiment: nucleus area z-score vs screen plate; higher = larger nuclei (more mature).
The test system is the same in experiment [2]. Put plainly: total neurite length per nucleus (MAP2) z-score; higher = more neurite growth.
Experiment [3] shares this test system. Kind of experiment: nucleus roundness z-score vs screen plate; higher = rounder nuclei (more mature).
Experiment [4] has the same test system. Kind of experiment: KCl-induced FOS+/EGR-1+ double-positive nuclei fraction z-score (KCl minus unstimulated); higher = stronger activity-induced IEG response.

With `CCOc1ccccc1OCCN[C@H](C)Cc1ccc(OC)c(S(N)(=O)=O)c1` [Tamsulosin hydrochloride], in experiment [1], the nucleus area z-score stood at 1.33. In addition, the “total neurite length per nucleus (z-score)” value in experiment [2] was -0.704. Moreover, the nucleus roundness z-score in experiment [3] is -0.534. For the same molecule, the “KCl-induced FOS+/EGR-1+ double-positive nuclei fraction z-score” value in experiment [4] was -0.941.
The like results for `CC(C)C(=O)OCC(=O)[C@@]12O[C@H](C3CCCCC3)O[C@@H]1C[C@H]1[C@@H]3CCC4=CC(=O)C=C[C@]4(C)[C@H]3[C@@H](O)C[C@@]12C` [Ciclesonide] were, in that order, 1.04, -0.0208, 0.218 and 0.162.
Regarding `CC(=O)/N=c1/sc(S(N)(=O)=O)nn1C` [Methazolamide], the nucleus area z-score in experiment [1] is -0.682. For the same molecule, in experiment [2], the “total neurite length per nucleus (z-score)” value came to 0.941. Besides, the nucleus roundness z-score in experiment [3] was determined as 1.06. Moreover, in experiment [4], the “KCl-induced FOS+/EGR-1+ double-positive nuclei fraction z-score” value is -0.145.
With `COc1ccc(CNC(=O)Nc2ncc([N+](=O)[O-])s2)cc1`, in experiment [1], the nucleus area z-score was 0.895. Also, the “total neurite length per nucleus (z-score)” value in experiment [2] came to 2.2. The molecule further yielded a nucleus roundness z-score in experiment [3] of 1.73. Further, the “KCl-induced FOS+/EGR-1+ double-positive nuclei fraction z-score” value in experiment [4] stood at 1.24.
With `C[C@]12CCC(=O)C=C1[C@@H]1C[C@@H]1[C@H]1[C@@H]3[C@@H]4C[C@@H]4[C@@]4(CCC(=O)O4)[C@@]3(C)CC[C@@H]12` [Drospirenone], the nucleus area z-score in experiment [1] is 0.557. Further, the “total neurite length per nucleus (z-score)” value in experiment [2] was -1.09. Also, in experiment [3], the nucleus roundness z-score was -2.1. In addition, in experiment [4], the “KCl-induced FOS+/EGR-1+ double-positive nuclei fraction z-score” value amounted to 0.734.
In experiment [1], `CC1(C)[C@@H](O[C@H]2O[C@H](C(=O)O)[C@@H](O)[C@H](O)[C@H]2O[C@@H]2O[C@H](C(=O)O)[C@@H](O)[C@H](O)[C@H]2O)CC[C@]2(C)[C@H]3C(=O)C=C4[C@@H]5C[C@@](C)(C(=O)O)CC[C@]5(C)CC[C@@]4(C)[C@]3(C)CC[C@@H]12` [Glycyrrhizin (Glycyrrhizic Acid)] gave a nucleus area z-score of 0.062. The “total neurite length per nucleus (z-score)” value in experiment [2] is 0.568. This molecule displayed a nucleus roundness z-score in experiment [3] of 1.23. Besides, the “KCl-induced FOS+/EGR-1+ double-positive nuclei fraction z-score” value in experiment [4] is -0.257.
